Laboratory results taken from US5082784.

Key:
[1] = system: KpnI methylase, deletion derivative pKpnM45 (Klebsiella pneumoniae BRL 25); experiment: activity in cells; settings: partial methylase activity; protein in cells; only the site is given
[2] = molecular target: T1, KpnI methylase (Klebsiella pneumoniae BRL 25) (UniProt P25238); experiment: activity in cells; settings: plasmid and chromosomal DNA resistant to KpnI; protein in cells; only the site is given
T1 sequence (looked up, limits assumed): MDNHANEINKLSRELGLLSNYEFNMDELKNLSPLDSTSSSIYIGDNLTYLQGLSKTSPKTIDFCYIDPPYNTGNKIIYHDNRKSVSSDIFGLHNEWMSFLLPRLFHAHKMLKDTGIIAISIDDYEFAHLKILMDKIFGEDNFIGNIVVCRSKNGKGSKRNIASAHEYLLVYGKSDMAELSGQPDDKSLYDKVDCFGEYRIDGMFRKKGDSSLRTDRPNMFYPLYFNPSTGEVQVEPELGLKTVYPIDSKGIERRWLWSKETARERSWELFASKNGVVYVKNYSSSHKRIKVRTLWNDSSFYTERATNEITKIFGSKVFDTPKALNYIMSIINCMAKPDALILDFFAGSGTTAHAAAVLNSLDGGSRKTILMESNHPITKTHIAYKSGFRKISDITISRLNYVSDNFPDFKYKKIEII

[3] = molecular target: T2, KpnI restriction endonuclease (Klebsiella pneumoniae BRL 25) (UniProt P25237); experiment: enzyme reaction in vitro; settings: methylated by KpnI methylase (position not given); DNA from pKpnM30 host protected from KpnI cleavage; no cleavage seen, binding not measured; protein in an extract
T2 sequence (looked up, limits assumed): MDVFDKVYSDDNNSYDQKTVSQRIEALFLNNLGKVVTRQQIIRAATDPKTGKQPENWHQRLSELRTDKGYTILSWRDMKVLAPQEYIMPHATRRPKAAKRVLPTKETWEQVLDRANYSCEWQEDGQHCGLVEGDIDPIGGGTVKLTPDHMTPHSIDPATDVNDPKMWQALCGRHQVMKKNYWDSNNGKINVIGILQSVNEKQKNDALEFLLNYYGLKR

| Sequence | activity on this sequence [1] | activity on this sequence [2] | activity on this sequence [3] |
| --- | --- | --- | --- |
| GGTACC (double strand) [KpnI sites in host chromosomal and plasmid DNA] | less active | active | – |
| GGTACC (double strand) [KpnI sites methylated by KpnI methylase] | – | – | not active |

For part of these data: A negative result means that nothing was seen under these conditions. For part of these data: Tags and fusion partners may be left off the protein sequences shown. For part of these data: For at least one entry, the source does not settle the construct or the ends of the probe. For part of these data: The comparison behind a weaker result is the experiment's own reference, which may not be listed here.
